Data reported in patent US10550125B2, “Prodrugs of imidazotriazine compounds as CK2 inhibitors” (BRISTOL-MYERS SQUIBB COMPANY, priority 2015, dated 2020).
At least one compound was matched to its structure with a doubt left.

Tested on: pCK2 motif
Assay: In vivo pharmacodynamic study, pCK2 motif inhibition in SNU-C1 (colon) xenograft tumor model
Details: SNU-C1 xenograft in mice, up to 24 hours
Description: pCK2 motif is a putative cellular substrate of CK2 with molecular weight of ˜60 kDa.
To determine extent of pCK2 motif inhibition by test compounds in vivo, SNU-C1 colon tumor cells were inoculated into female BALB/c athymic mice and propagated as subcutaneous xenografts. The dosing solutions of the compound or control were administered to mice with tumors reaching ˜500 mm by oral gavage at the indicated dose levels and schedules. Tumors were collected from control and treated mice at the indicated times and immediately frozen in liquid nitrogen. Frozen tumors were thawed on ice in 5 volumes of TTG buffer (Tris-HCl, pH 7.9, 10% glycerol, 0.02% Tween-20). Tumors were homogenized using a Qiagen TissueLyser II (3×1 min (1/30S)) in Qiagen Tissulyser tubes containing steel beads. Tumor homogenates were clarified by microcentrifugation at 13000 rpm for 10 min. Western blot analysis was performed using 60 μg of protein per lane on 4-15% BioRad SDS-PAGE gels. Blots were probed with an anti-pCK2 motif antibody (mAb #8738 Cell Signaling Technology) and anti-Actin antibody. […] The intensity of the pCK2 motif band was measured on images obtained from the Licor Odyssey instrument. % pCK2 remaining at each dose was calculated relative to the average intensity of bands from untreated, control mouse tumors.

COC(=O)N[C@H]1CCN(c2cc(C#N)cc(Nc3nc(NC4CC4)c4ncc(C#N)n4n3)c2Cl)C[C@@H]1O [174 (WO2014011974), reference compound]
suppression of pCK2 motif levels relative to vehicle control (in words): much less robust
